Results are given in words; binding and its absence hold for the method and conditions named. In cells and extracts the contact can be indirect. Here binding means that the protein was enriched with, or labelled near, the bait; the list need not be complete.

Experiment [1] has as its target endogenous EGFR of A431 and NCI-H226 cells (human (endogenous in A431 and NCI-H226)) (UniProt P00533). Briefly: proximity labelling; EGFR-FabID on adherent A431 cells (endogenous EGFR), 37 °C, 2 h; DMSO, EGF, EGF+gefitinib or gefitinib alone; biotinylated peptides enriched with Tamavidin 2-REV, LC-MS/MS; AGIA-FabID as control.
Experiment [2] addresses T1, endogenous EGFR of A431 and NCI-H226 cells (human (endogenous in A431 and NCI-H226)), P00533. The experiment is described as above. Conditions: remark: other sources report otherwise.
Experiment [3] concerns the target T1, endogenous EGFR of A431 and NCI-H226 …. Kind of experiment: proximity labelling; EGFR-FabID on adherent NCI-H226 cells (endogenous EGFR), 37 °C, 3 h; DMSO, EGF, EGF+gefitinib or gefitinib alone; biotinylated peptides enriched with Tamavidin 2-REV, LC-MS/MS; AGIA-FabID as control. Conditions: remark: other sources report otherwise.

B1: DSG3 (protein, UniProt P32926 50-999)
chain: EWVKFAKPCREGEDNSKRNPIAKITSDYQATQKITYRISGVGIDQPPFGIFVVDKNTGDINITAIVDREETPSFLITCRALNAQGLDVEKPLILTVKILDINDNPPVFSQQIFMGEIEENSASNSLVMILNATDADEPNHLNSKIAFKIVSQEPAGTPMFLLSRNTGEVRTLTNSLDREQASSYRLVVSGADKDGEGLSTQCECNIKVKDVNDNFPMFRDSQYSARIEENILSSELLRFQVTDLDEEYTDNWLAVYFFTSGNEGNWFEIQTDPRTNEGILKVVKALDYEQLQSVKLSIAVKNKAEFHQSVISRYRVQSTPVTIQVINVREGIAFRPASKTFTVQKGISSKKLVDYILGTYQAIDEDTNKAASNVKYVMGRNDGGYLMIDSKTAEIKFVKNMNRDSTFIVNKTITAEVLAIDEYTGKTSTGTVYVRVPDFNDNCPTAVLEKDAVCSSSPSVVVSARTLNNRYTGPYTFALEDQPVKLPAVWSITTLNATSALLRAQEQIPPGVYHISLVLTDSQNNRCEMPRSLTLEVCQCDNRGICGTSYPTTSPGTRYGRPHSGRLGPAAIGLLLLGLLLLLLAPLLLLTCDCGAGSTGGVTGGFIPVPDGSEGTIHQWGIEGAHPEDKEITNICVPPVTANGADFMESSEVCTNTYARGTAVEGTSGMEMTTKLGAATESGGAAGFATGTVSGAASGFGAATGVGICSSGQSGTMRTRHSTGGTNKDYADGAISMNFLDSYFSQKAFACAEEDDGQEANDCLLIYDNEGADATGSPVGSVGCCSFIADDLDDSFLDSLGPKFKKLAEISLGVDGEGKEVQPPSKDSGYGIESCGHPIEVQQTGFVKCQTLSGSQGASALSTSGSVQPAVSIPDPLQHGNYLVTETYSASGSLVQPSTAGFDPLLTQNVIVTERVICPISSVPGNLAGPTQLRGSHTMLCTEDPCSRLI
As to B1, in experiment [1], the binding entry is “binds”.

B2: PTK7 (tyrosine receptor kinase 7), endogenous, Q13308 31-1070 (receptor)
chain: AIVFIKQPSSQDALQGRRALLRCEVEAPGPVHVYWLLDGAPVQDTERRFAQGSSLSFAAVDRLQDSGTFQCVARDDVTGEEARSANASFNIKWIEAGPVVLKHPASEAEIQPQTQVTLRCHIDGHPRPTYQWFRDGTPLSDGQSNHTVSSKERNLTLRPAGPEHSGLYSCCAHSAFGQACSSQNFTLSIADESFARVVLAPQDVVVARYEEAMFHCQFSAQPPPSLQWLFEDETPITNRSRPPHLRRATVFANGSLLLTQVRPRNAGIYRCIGQGQRGPPIILEATLHLAEIEDMPLFEPRVFTAGSEERVTCLPPKGLPEPSVWWEHAGVRLPTHGRVYQKGHELVLANIAESDAGVYTCHAANLAGQRRQDVNITVATVPSWLKKPQDSQLEEGKPGYLDCLTQATPKPTVVWYRNQMLISEDSRFEVFKNGTLRINSVEVYDGTWYRCMSSTPAGSIEAQARVQVLEKLKFTPPPQPQQCMEFDKEATVPCSATGREKPTIKWERADGSSLPEWVTDNAGTLHFARVTRDDAGNYTCIASNGPQGQIRAHVQLTVAVFITFKVEPERTTVYQGHTALLQCEAQGDPKPLIQWKGKDRILDPTKLGPRMHIFQNGSLVIHDVAPEDSGRYTCIAGNSCNIKHTEAPLYVVDKPVPEESEGPGSPPPYKMIQTIGLSVGAAVAYIIAVLGLMFYCKKRCKAKRLQKQPEGEEPEMECLNGGPLQNGQPSAEIQEEVALTSLGSGPAATNKRHSTSDKMHFPRSSLQPITTLGKSEFGEVFLAKAQGLEEGVAETLVLVKSLQSKDEQQQLDFRRELEMFGKLNHANVVRLLGLCREAEPHYMVLEYVDLGDLKQFLRISKSKDEKLKSQPLSTKQKVALCTQVALGMEHLSNNRFVHKDLAARNCLVSAQRQVKVSALGLSKDVYNSEYYHFRQAWVPLRWMSPEAILEGDFSTKSDVWAFGVLMWEVFTHGEMPHGGQADDEVLADLQAGKARLPQPEGCPSKLYRLMQRCWALSPKDRPSFSEIASALGDSTVDSKP
In the case of B2, the binding result in experiment [2] and in experiment [3] was “binds” throughout.

The record behind these values is publication PMC10721602.
